# In ChEMBL document CHEMBL4316593 (Eur J Med Chem, 2019):
# Further values from the same series stand in other lists.
# Assays:
# Assay type in all cases: cell-based
# Conditions in all cases: U-87MG ATCC
# [1] = Inhibition of RTK/PI3K/AKT/mTOR signaling in human U87 cells assessed as down regulation of ATP6V1B2 gene expression at cytotoxic IC50 measured after 48 hrs relative to control
# [2] = Inhibition of RTK/PI3K/AKT/mTOR signaling in human U87 cells assessed as down regulation of TBCCD1 gene expression at cytotoxic IC50 measured after 48 hrs relative to control
# [3] = Inhibition of RTK/PI3K/AKT/mTOR signaling in human U87 cells assessed as up regulation of ring finger protein 149 gene expression at cytotoxic IC50 measured after 48 hrs relative to control
# [4] = Inhibition of RTK/PI3K/AKT/mTOR signaling in human U87 cells assessed as up regulation of ATP2A2 gene expression at cytotoxic IC50 measured after 48 hrs relative to control
# [5] = Inhibition of RTK/PI3K/AKT/mTOR signaling in human U87 cells assessed as up regulation of TSPAN1 gene expression at cytotoxic IC50 measured after 48 hrs relative to control
# [6] = Inhibition of RTK/PI3K/AKT/mTOR signaling in human U87 cells assessed as up regulation of PPFIA4 gene expression at cytotoxic IC50 measured after 48 hrs relative to control
# [7] = Inhibition of RTK/PI3K/AKT/mTOR signaling in human U87 cells assessed as up regulation of ATP binding cassette subfamily A member 2 gene expression at cytotoxic IC50 measured after 48 hrs relative to control
# [8] = Inhibition of RTK/PI3K/AKT/mTOR signaling in human U87 cells assessed as up regulation of STK11 gene expression at cytotoxic IC50 measured after 48 hrs relative to control
# [9] = Inhibition of RTK/PI3K/AKT/mTOR signaling in human U87 cells assessed as down regulation of C2orf42 gene expression at cytotoxic IC50 measured after 48 hrs relative to control
# [10] = Inhibition of RTK/PI3K/AKT/mTOR signaling in human U87 cells assessed as up regulation of KITLG gene expression at cytotoxic IC50 measured after 48 hrs relative to control
# [11] = Inhibition of RTK/PI3K/AKT/mTOR signaling in human U87 cells assessed as down regulation of SLC35F5 gene expression at cytotoxic IC50 measured after 48 hrs relative to control
# [12] = Inhibition of RTK/PI3K/AKT/mTOR signaling in human U87 cells assessed as up regulation of RAB17, member RAS oncogene family gene expression at cytotoxic IC50 measured after 48 hrs relative to control
# [13] = Inhibition of RTK/PI3K/AKT/mTOR signaling in human U87 cells assessed as up regulation of FRAS1 gene expression at cytotoxic IC50 measured after 48 hrs relative to control
# [14] = Inhibition of RTK/PI3K/AKT/mTOR signaling in human U87 cells assessed as down regulation of ZNF703 gene expression at cytotoxic IC50 measured after 48 hrs relative to control
# [15] = Inhibition of RTK/PI3K/AKT/mTOR signaling in human U87 cells assessed as up regulation of RPL15 gene expression at cytotoxic IC50 measured after 48 hrs relative to control
# [16] = Inhibition of RTK/PI3K/AKT/mTOR signaling in human U87 cells assessed as down regulation of DNAJB9 gene expression at cytotoxic IC50 measured after 48 hrs relative to control
# [17] = Inhibition of RTK/PI3K/AKT/mTOR signaling in human U87 cells assessed as up regulation of keratin 18 gene expression at cytotoxic IC50 measured after 48 hrs relative to control
# [18] = Inhibition of RTK/PI3K/AKT/mTOR signaling in human U87 cells assessed as down regulation of ST7 gene expression at cytotoxic IC50 measured after 48 hrs relative to control
# [19] = Inhibition of RTK/PI3K/AKT/mTOR signaling in human U87 cells assessed as down regulation of CAT gene expression at cytotoxic IC50 measured after 48 hrs relative to control
# [20] = Inhibition of RTK/PI3K/AKT/mTOR signaling in human U87 cells assessed as down regulation of SKA1 gene expression at cytotoxic IC50 measured after 48 hrs relative to control
# [21] = Inhibition of RTK/PI3K/AKT/mTOR signaling in human U87 cells assessed as up regulation of Meis homeobox 3 gene expression at cytotoxic IC50 measured after 48 hrs relative to control
# [22] = Inhibition of RTK/PI3K/AKT/mTOR signaling in human U87 cells assessed as up regulation of SWI/SNF related, matrix associated, actin dependent regulator of chromatin, subfamily a, member 1 gene expression at cytotoxic IC50 measured after 48 hrs relative to control
# [23] = Inhibition of RTK/PI3K/AKT/mTOR signaling in human U87 cells assessed as up regulation of family with sequence similarity 35 member A gene expression at cytotoxic IC50 measured after 48 hrs relative to control
# [24] = Inhibition of RTK/PI3K/AKT/mTOR signaling in human U87 cells assessed as down regulation of FAM46A gene expression at cytotoxic IC50 measured after 48 hrs relative to control
# [25] = Inhibition of RTK/PI3K/AKT/mTOR signaling in human U87 cells assessed as down regulation of HSPD1 gene expression at cytotoxic IC50 measured after 48 hrs relative to control
# [26] = Inhibition of RTK/PI3K/AKT/mTOR signaling in human U87 cells assessed as up regulation of microtubule-actin crosslinking factor 1 gene expression at cytotoxic IC50 measured after 48 hrs relative to control
# [27] = Inhibition of RTK/PI3K/AKT/mTOR signaling in human U87 cells assessed as up regulation of C6orf223 gene expression at cytotoxic IC50 measured after 48 hrs relative to control
# [28] = Inhibition of RTK/PI3K/AKT/mTOR signaling in human U87 cells assessed as up regulation of MICAL2 gene expression at cytotoxic IC50 measured after 48 hrs relative to control
# [29] = Inhibition of RTK/PI3K/AKT/mTOR signaling in human U87 cells assessed as up regulation of CBX3 gene expression at cytotoxic IC50 measured after 48 hrs relative to control
# [30] = Inhibition of RTK/PI3K/AKT/mTOR signaling in human U87 cells assessed as up regulation of thyroid hormone receptor interactor 6 gene expression at cytotoxic IC50 measured after 48 hrs relative to control
# [31] = Inhibition of RTK/PI3K/AKT/mTOR signaling in human U87 cells assessed as up regulation of EGLN3 gene expression at cytotoxic IC50 measured after 48 hrs relative to control
# [32] = Inhibition of RTK/PI3K/AKT/mTOR signaling in human U87 cells assessed as up regulation of histone deacetylase 4 gene expression at cytotoxic IC50 measured after 48 hrs relative to control
compound,measurement,setting,value
CC(=O)C(=NNc1ccccc1C#N)C(C)=O,log2FC,[1],-1.1
same,log2FC,[2],-1.1
same,log2FC,[3],0.793
same,log2FC,[4],0.447
same,log2FC,[5],1.85
same,log2FC,[6],2.05
same,log2FC,[7],1.26
same,log2FC,[8],0.631
same,log2FC,[9],-1.04
same,log2FC,[10],2.14
same,log2FC,[11],-1.02
same,log2FC,[12],0.88
same,log2FC,[13],1.73
same,log2FC,[14],-2.02
same,log2FC,[15],0.574
same,log2FC,[16],-0.956
same,log2FC,[17],1.42
same,log2FC,[18],-1.05
same,log2FC,[19],-0.557
same,log2FC,[20],-1.49
same,log2FC,[21],0.704
same,log2FC,[22],0.779
same,log2FC,[23],1.15
same,log2FC,[24],-0.72
same,log2FC,[25],-0.321
same,log2FC,[26],1.16
same,log2FC,[27],3.5
same,log2FC,[28],0.533
same,log2FC,[29],0.412
same,log2FC,[30],1.31
same,log2FC,[31],3.45
same,log2FC,[32],1.39
